{
  "source": "patent US10780067B2",
  "about": "“Endoxifen for local transdermal therapy to the breast” (Northwestern University, priority 2016, dated 2020)",
  "origin": "cited, not measured here",
  "conditions": "orally administered; cited from earlier work",
  "note": "At least one read-out could not be matched to a standard name with certainty.",
  "data": [
    {"smiles": "CC/C(=C(\\c1ccc(O)cc1)c1ccc(OCCNC)cc1)c1ccccc1", "note": "[Endoxifen, N-desmethyl-4-hydroxytamoxifen]", "values": [
      {"measurement": "systemic bioavailability compared with TAM", "value": "faster and higher systemic bioavailability than TAM"}
    ]}
  ]
}
